Laboratory results taken from PubChem BioAssay AID1487 (National Center for Advancing Translational Sciences (NCATS), 2009).
The list shows a part of the results. These are further read-outs of the screen, such as a control signal, another cell line or another target. No call is given for them. Compounds called inactive in the main read-out are mostly missing here. The note in brackets gives the kind of curve behind each potency; many fits are weak.

Assay: qHTS Assay for Modulators of Lamin A Splicing
Conditions: HeLa LMNA splicing GFP/RFP minigene ratio, 48 h
Outline: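 S3 HeLa cells stably expressing lamin A-EGFP splicing minigene plus DsRed2, 600 cells/well, 48 h compound exposure at 37C. Laser-scanning cytometry; analysed as GFP (500-530 nm)/RFP (575-640 nm) total intensity ratio; 0.5% DMSO vehicle.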

[1] = measured here: RFP viability control channel
[2] = measured here: GFP splicing reporter channel

CCN(CC)S(=O)(=O)c1ccc(Cl)c(C(=O)Nc2cc(C)nn2-c2ccccc2)c1
AC50 [1]: 15.8 µM [rising, single point]

Cc1nc(N2CCOCC2)c2oc3ccccc3c2n1
AC50 [2]: 14.1 µM [rising, single point]
AC50 [1]: 14.1 µM [rising, single point]

COc1cc([N+](=O)[O-])cc(/C=N/NC(=O)C(C)Nc2cccc3ccccc23)c1O (stereo unspecified)
AC50 [1]: 12.6 µM [falling, single point]

O=C(Nc1cccc(C2OCCCO2)c1)c1cccs1
AC50 [2]: 35.5 µM [rising, single point]

CCCNC(=O)Cn1nc(C(F)(F)F)cc1C
AC50 [1]: 0.0316 µM [falling, full curve, poor fit]

Cc1ccc(C(=O)NNC(=O)CSc2nnc3c(n2)[nH]c2ccc(F)cc23)cc1
AC50 [2]: 12.6 µM [falling, single point]
AC50 [1]: 31.6 µM [falling, single point]

Cc1nc(-c2ccc(C)c(N3CCN(C(=O)Nc4ccccc4C(F)(F)F)CC3)c2)no1
AC50 [2]: 0.355 µM [falling, full curve, poor fit]
AC50 [1]: 0.562 µM [falling, single point]

COc1ccc2nc3c(cc2c1)c(NC(=O)c1cccs1)nn3CC(C)C
AC50 [2]: 10 µM [falling, partial curve, poor fit]
AC50 [1]: 8.91 µM [falling, partial curve]

CCCN1C2CCCC1CC(NC(=S)Nc1ccc(OC)cc1)C2 (stereo unspecified)
AC50 [1]: 0.00447 µM [rising, full curve, poor fit]

COc1cc2nc(CN(C)Cc3ccc(Cl)cc3)[nH]c(=O)c2cc1OC
AC50 [1]: 12.6 µM [rising, single point]

CCn1nc(C)c(Oc2ccccc2O)c1C
AC50 [1]: 25.1 µM [rising, single point]

Cc1cc(NC(=O)Nc2cccc3ccccc23)no1
AC50 [1]: 14.1 µM [rising, single point]

CCC(=O)c1cc(F)c(N2CCN(S(=O)(=O)c3ccccc3)CC2)cc1C
AC50 [1]: 35.5 µM [rising, single point]

CCC(C)(C)n1nnnc1CN(Cc1cc2cc(OC)ccc2[nH]c1=O)C1CCCC1
AC50 [2]: 35.5 µM [rising, single point]
AC50 [1]: 12.6 µM [rising, single point]

O=C(CSC1=NCCS1)N1CCN(c2ccc(Cl)cc2)CC1
AC50 [2]: 10 µM [falling, partial curve]

Cc1ccc(-n2ncc(-c3nnc(SCC(=O)NC4CCCC4)o3)c2N)cc1C
AC50 [2]: 2.82 µM [rising, single point]
AC50 [1]: 11.2 µM [rising, partial curve]

CCCC(=O)Nc1nc2ccc(S(=O)(=O)N3CCCCC3)cc2s1
AC50 [1]: 5.01 µM [rising, full curve]

C=CCn1c(=O)c(C(=O)Nc2ccccc2S(N)(=O)=O)c(O)c2ccccc21
AC50 [2]: 15.8 µM [rising, partial curve, poor fit]

O=C(CSCC(=O)Nc1ccccc1)N/N=C/c1c(O)ccc2ccccc12
AC50 [1]: 10 µM [rising, partial curve]

CC(C)c1ccc(/C=N/NC(=O)c2cccc(Cl)c2)cc1
AC50 [2]: 12.6 µM [rising, partial curve]
AC50 [1]: 15.8 µM [rising, partial curve]

Cc1cc(C)c(C#N)c(SCc2nc3ccccc3c(=O)[nH]2)n1
AC50 [2]: 35.5 µM [falling, single point]
AC50 [1]: 35.5 µM [falling, partial curve, poor fit]

CCS(=O)(=O)Nc1cccc(-c2cc(-c3ccccc3)c3cc(C)ccc3n2)c1
AC50 [2]: 35.5 µM [falling, single point]
AC50 [1]: 22.4 µM [falling, partial curve]

Oc1c(I)cc(I)c2cccnc12
AC50 [2]: 12.6 µM [rising, single point]
AC50 [1]: 14.1 µM [rising, partial curve]

COC(=O)c1ccc(OCC(O)Cn2nnc3ccccc32)cc1 (stereo unspecified)
AC50 [1]: 0.0112 µM [falling, full curve, poor fit]

COc1ccccc1-n1cnnc1SCC(=O)Nc1cc(C(C)(C)C)nn1-c1ccccc1
AC50 [2]: 4.47 µM [rising, full curve, poor fit]
AC50 [1]: 11.2 µM [rising, partial curve]

CCc1nnc(NC(=O)CN2CCN(c3nc(-c4ccccc4)cs3)CC2)s1
AC50 [1]: 17.8 µM [rising, single point]

CCN1CCN(CCCN(Cc2ccco2)C(=S)Nc2cc(Cl)ccc2C)CC1
AC50 [2]: 11.2 µM [falling, partial curve]

Cn1nc([N+](=O)[O-])c(C(C#N)c2nc3ccccc3n2C)c(Cl)c1=O (stereo unspecified)
AC50 [1]: 22.4 µM [rising, single point]

COc1cccc(C(=O)N2CCN(Cc3ccc4c(c3)OCO4)CC2)c1OC
AC50 [2]: 22.4 µM [rising, partial curve, poor fit]
AC50 [1]: 25.1 µM [rising, single point]

COc1ccc(C2(O)CN(c3ccccc3)C3=[N+]2CCS3)cc1OC (stereo unspecified)
AC50 [1]: 0.0891 µM [rising, full curve]

COc1ccc(-c2nc(C)c(CCNC(=O)C(=O)Nc3cccc(F)c3)s2)cc1OC
AC50 [1]: 35.5 µM [falling, single point]

O=C(Nc1cccc(Cl)c1)c1ccc2c(=O)n3c(nc2c1)CCCCC3
AC50 [2]: 10 µM [rising, partial curve, poor fit]
AC50 [1]: 12.6 µM [rising, partial curve]

COc1ccc2cc(C(=O)Nc3ccc(O)cc3)sc(=O)c2c1OC
AC50 [1]: 22.4 µM [rising, single point]

CCc1c(C)c(C#N)c2nc3ccccc3n2c1NCc1ccccn1
AC50 [1]: 31.6 µM [falling, partial curve, poor fit]

O=C(CSc1nc2ccccc2s1)NC1CCCc2ccccc21 (stereo unspecified)
AC50 [1]: 35.5 µM [rising, single point]

COc1ccccc1-c1cc(C(F)(F)F)nc(S(=O)(=O)CCCC(=O)N2CCCCC2C)n1 (stereo unspecified)
AC50 [2]: 35.5 µM [rising, single point]
AC50 [1]: 22.4 µM [falling, single point]

Cc1cc(C)n2nc(SCC(=O)c3cc(C)n(-c4cc(C)on4)c3C)nc2n1
AC50 [2]: 0.794 µM [rising, full curve, poor fit]
AC50 [1]: 2.24 µM [rising, full curve]

COc1ccc(-n2c(=O)c3ccccc3n(CC(=O)Nc3cccc(OC)c3)c2=O)cc1
AC50 [1]: 22.4 µM [falling, single point]

O=[N+]([O-])c1ccc(Oc2cccc3cccnc23)c([N+](=O)[O-])c1
AC50 [2]: 14.1 µM [rising, single point]

COC(=O)c1cc(-c2c(C)oc3cc(OC(C)C)ccc3c2=O)c(C)o1
AC50 [2]: 17.8 µM [rising, single point]
AC50 [1]: 35.5 µM [rising, single point]

COc1cc(NC(=S)NC(=O)c2ccc(C(C)(C)C)cc2)ccc1NC(=O)c1cccs1
AC50 [1]: 1.78 µM [rising, full curve]

COc1cc(-c2nc3ccccc3c(=O)n2N)cc(OC)c1OC
AC50 [1]: 0.00891 µM [falling, full curve, poor fit]

N#Cc1ccc(/C=C/C(=O)c2ccco2)cc1
AC50 [2]: 14.1 µM [rising, single point]

COc1cc(C(=O)OCc2ccc(C)cc2)cc(NC(=O)c2cccs2)c1OC
AC50 [2]: 6.31 µM [rising, partial curve]

Cc1cc(Cl)c(OCCCSc2nc(C)cc(=O)[nH]2)c(Br)c1
AC50 [1]: 31.6 µM [rising, single point]

COc1ccc(/C=C/C(=O)OCCC(C)C)cc1
AC50 [1]: 17.8 µM [rising, single point]

CC1=C(C(=O)OCc2ccccc2)C(c2ccccn2)c2c(n(C)c(=O)n(C)c2=O)N1 (stereo unspecified)
AC50 [2]: 10 µM [rising, single point]

CSc1ccc(S(=O)(=O)Nc2ccc(N3CCOCC3)c(Cl)c2)cc1
AC50 [1]: 15.8 µM [rising, partial curve]

C=CS(=O)(=O)c1sc(Cl)c(N2CCOCC2)c1[N+](=O)[O-]
AC50 [2]: 10 µM [falling, partial curve]
AC50 [1]: 11.2 µM [falling, partial curve]

CCOC(=O)c1sc2ccccc2c1S(=O)(=O)Nc1ccc(N(C)C)cc1
AC50 [1]: 10 µM [rising, partial curve, poor fit]

C#C[C@]1(O)CC[C@@H]2[C@H]3CCC4=CCCC[C@@H]4[C@@H]3CC[C@@]21C
AC50 [2]: 2.82 µM [falling, full curve]
AC50 [1]: 2.82 µM [falling, full curve, poor fit]

CCn1cc[n+](C)c1P(c1ccccc1)c1ccccc1
AC50 [1]: 12.6 µM [rising, partial curve, poor fit]

Cc1ccccc1C(=O)Nc1nnc(-c2ccc(F)cc2)o1
AC50 [1]: 12.6 µM [rising, single point]

O=C1/C(=C/c2ccccc2)NC(=S)N1C(c1ccccc1)c1ccccc1
AC50 [1]: 35.5 µM [rising, single point]

Cc1cc(C)cc(OCC(=O)NCC(c2ccc(Cl)cc2)N2CCCCC2)c1 (stereo unspecified)
AC50 [2]: 31.6 µM [falling, single point]
AC50 [1]: 35.5 µM [falling, single point]

Cc1ccccc1Cn1cc(NC(=O)c2cc(-c3ccco3)on2)cn1
AC50 [2]: 4.47 µM [falling, full curve, poor fit]

Cc1ccccc1NC(=S)NCc1ccc2[nH]c3c(c2c1)CCCC3
AC50 [1]: 35.5 µM [rising, single point]
